Measurements: patent publication US6727407
Results are given in words; binding and its absence hold for the method and conditions named. For part of these data: Binding seen in cells or lysates may run through a third protein. Some binding calls cover weakened binding; strength is not graded here. For part of these data: Sequences can lack the tags named with a protein.

The chains behind the UniProt entries cited, without tags or fusion partners. Where a name states a change or a piece, a line headed by the entry shows the natural chain unless it says otherwise.
UniProt P04386: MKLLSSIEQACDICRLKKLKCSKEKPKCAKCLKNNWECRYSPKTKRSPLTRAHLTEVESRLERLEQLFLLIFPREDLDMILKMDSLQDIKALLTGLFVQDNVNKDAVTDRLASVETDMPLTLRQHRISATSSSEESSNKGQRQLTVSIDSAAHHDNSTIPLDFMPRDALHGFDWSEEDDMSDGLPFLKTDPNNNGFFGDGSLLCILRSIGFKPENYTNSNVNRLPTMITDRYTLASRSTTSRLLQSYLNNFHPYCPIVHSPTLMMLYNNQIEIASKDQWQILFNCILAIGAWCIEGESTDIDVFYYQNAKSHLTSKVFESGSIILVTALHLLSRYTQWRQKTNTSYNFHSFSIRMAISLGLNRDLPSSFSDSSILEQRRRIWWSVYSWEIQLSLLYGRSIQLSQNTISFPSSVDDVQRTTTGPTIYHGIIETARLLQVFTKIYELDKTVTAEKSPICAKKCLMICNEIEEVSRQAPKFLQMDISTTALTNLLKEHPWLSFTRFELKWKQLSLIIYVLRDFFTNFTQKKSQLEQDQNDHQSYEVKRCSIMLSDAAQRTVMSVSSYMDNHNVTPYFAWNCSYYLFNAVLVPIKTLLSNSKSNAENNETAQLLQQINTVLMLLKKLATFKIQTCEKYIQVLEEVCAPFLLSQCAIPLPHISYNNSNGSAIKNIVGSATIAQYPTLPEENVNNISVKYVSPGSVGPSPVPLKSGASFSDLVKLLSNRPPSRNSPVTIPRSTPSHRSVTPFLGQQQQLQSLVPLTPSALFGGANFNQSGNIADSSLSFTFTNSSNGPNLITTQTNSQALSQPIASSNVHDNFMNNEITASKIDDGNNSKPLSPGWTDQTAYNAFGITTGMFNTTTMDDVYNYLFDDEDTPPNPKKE
UniProt P92973: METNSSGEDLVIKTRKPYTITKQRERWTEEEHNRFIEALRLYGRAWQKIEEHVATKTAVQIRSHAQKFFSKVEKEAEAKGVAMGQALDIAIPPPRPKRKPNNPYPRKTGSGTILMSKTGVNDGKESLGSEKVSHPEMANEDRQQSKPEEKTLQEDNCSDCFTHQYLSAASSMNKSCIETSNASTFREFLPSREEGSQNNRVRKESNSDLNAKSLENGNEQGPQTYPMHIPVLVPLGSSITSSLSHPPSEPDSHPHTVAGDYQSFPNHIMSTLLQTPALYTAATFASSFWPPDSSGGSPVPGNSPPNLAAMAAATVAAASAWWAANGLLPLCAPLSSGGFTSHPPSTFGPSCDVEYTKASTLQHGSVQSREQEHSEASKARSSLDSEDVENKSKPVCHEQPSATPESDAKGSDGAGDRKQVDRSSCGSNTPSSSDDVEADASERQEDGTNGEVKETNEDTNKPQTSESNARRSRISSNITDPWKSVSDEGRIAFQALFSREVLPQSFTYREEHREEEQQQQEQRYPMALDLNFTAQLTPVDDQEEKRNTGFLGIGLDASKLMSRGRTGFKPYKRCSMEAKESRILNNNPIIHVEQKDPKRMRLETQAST

T1: GST-LHY (Arabidopsis thaliana) (UniProt Q6R0H1)
T1 sequence (looked up): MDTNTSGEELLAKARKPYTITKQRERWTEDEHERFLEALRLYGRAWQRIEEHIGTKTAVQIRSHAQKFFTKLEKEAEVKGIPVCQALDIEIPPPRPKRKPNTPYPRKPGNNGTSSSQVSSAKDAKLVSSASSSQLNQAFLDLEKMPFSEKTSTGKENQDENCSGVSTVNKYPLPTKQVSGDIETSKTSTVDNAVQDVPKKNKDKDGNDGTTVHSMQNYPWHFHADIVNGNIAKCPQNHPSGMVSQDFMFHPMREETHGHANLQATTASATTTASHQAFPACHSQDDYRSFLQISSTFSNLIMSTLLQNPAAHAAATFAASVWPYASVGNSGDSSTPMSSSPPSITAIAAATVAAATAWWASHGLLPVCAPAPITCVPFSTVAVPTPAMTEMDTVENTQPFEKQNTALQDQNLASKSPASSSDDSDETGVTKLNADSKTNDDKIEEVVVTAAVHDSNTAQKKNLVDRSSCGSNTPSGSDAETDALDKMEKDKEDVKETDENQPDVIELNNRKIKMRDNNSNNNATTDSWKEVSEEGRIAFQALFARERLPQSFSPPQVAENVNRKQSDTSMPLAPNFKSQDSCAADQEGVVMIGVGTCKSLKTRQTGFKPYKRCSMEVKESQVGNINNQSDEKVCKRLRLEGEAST


Assays:
[1] = target: T2, GAL4-DB-CCA1 (entire coding region for CCA1 fused to the GAL4 DNA-binding domain in pAS2) (Arabidopsis thaliana) (UniProt P04386+P92973); test: yeast two-hybrid screen, HIS3 and lacZ reporters
[2] = target: GST-CCA1 (Arabidopsis thaliana) (UniProt P92973); test: GST pull-down of 35S-labeled protein on glutathione-agarose beads, SDS-PAGE autoradiography
[3] = target: T1, GST-LHY (Arabidopsis thaliana); test: as above
[4] = target: T1, GST-LHY (Arabidopsis thaliana); test: GST pull-down of 35S-labeled CKB3 on glutathione-agarose beads, 12.5% SDS-PAGE
[5] = target: T2, GAL4-DB-CCA1 (entire coding region for CCA1 fused to the GAL4 DNA-binding domain in pAS2) (Arabidopsis thaliana); test: yeast two-hybrid, HIS3 growth and β-galactosidase filter assay

Binder	binding [2]	binding [5]	also measured
GAL4-AD fusion of the clone 106 product (214 amino acid fragment of CKB3) (protein, not shown: large carriers) KTQLPDVESETDSEGSDVSGSEGDDTSWISWFCNLRGNDFFCEVDEDYIQDDFNLCGLSGQVPYYDYALDLILDVDASNSEMFTDEQHEMVESAAEMLYGLIHVRYILTTKGMAAMTEKYKNCDFGRCPRVFCCGQSCLPVGQSDIPRSSTVKIYCPKCEDISYPRSKFQGNIDGAYFGTTFPHLFLMTYGNLKPQKPTQSYVPKIFGFKVHKP	–	–	binding [1]: binds
CKA1 (α-subunit of Arabidopsis protein kinase CK2) (enzyme, Arabidopsis thaliana, UniProt Q08467-3 1-333, looked up) MSKARVYTEVNVIRPKDYWDYESLIVQWGEQDDYEVVRKVGRGKYSEVFEGINVNSKEKCIIKILKPVKKKKIRREIKILQNLCGGPNIVKLLDVVRDQHSKTPSLIFEYVNSTDFKVLYPTLTDYDIRYYIYELLKALDFCHSQGIMHRDVKPHNVMIDHELRKLRLIDWGLAEFYHPGKEYNVRVASRYFKGPELLVDLQDYDYSLDMWSLGCMFAGMIFRKEPFFYGHDNQDQLVKIAKVLGTDELNAYLNKYQLELDPQLEALVGRHSRKPWSKFINADNQHLVSPEAIDFLDKLLRYDHQDRLTAKEAMAHAYFAQVRAAETSRMRSQ	binds	–	–
35S-labeled CKB1 (Arabidopsis CK2 β-subunit CKB1), in vitro translated (protein, Arabidopsis thaliana, UniProt P40228 1-287, looked up, [35S]methionine label) MYRDRGTVNSRPEVVDRKRINDALERPSPSTSRQVNGKGKGTVTAATTTANLIGKQQSNNINHRDSRSASLSKNNTVSDDESDTDSEESDVSGSDGEDTSWISWFCNLRGNEFFCEVDDDYIQDDFNLCGLSSLVPYYEYALDLILDVESSQGEMFTEEQNELIESAAEMLYGLIHARYILTSKGLAAMLDKYKNYDFGRCPRVYCCGQPCLPVGQSDLPRSSTVKIYCPKCEDIYYPRSKYQGNIDGAYFGTTFPHLFLMTYGHLKPAKATQNYVQRVFGFKLHKP	binds	–	binding [3]: binds
35S-labeled CKB2 (Arabidopsis CK2 β-subunit CKB2), in vitro translated (protein, Arabidopsis thaliana, UniProt P40229 1-282, looked up, [35S]methionine label) MYRERGMVGSKSEVVDRKRINEIHDNRPSHSMSQPVNGKGKVTSTSVLMGKQQLHDKESSRSGSISKTNISDAVDISDTDSEESEVSGSDGEDTSWISWFCNLRGNEFFCEVDDDYIQDDFNLCGLSHQVPYYDYALDLILDVESSHGEMFTEEQNELIESAAEMLYGMIHARFILTSKGLASMLDKYKNYDFGRCPRVYCCGQPCLPVGQSDIPRASTVKIYCPKCEDVYYPRSKYQGNIDGAYFGTTFPHLFLMTYGHLKPQKASQSYTQRVFGFKLHKP	binds	–	–
35S-labeled CKB3 (Arabidopsis protein kinase CK2 β-subunit CKB3), synthesized by coupled transcription-translation in wheat germ extract (protein, [35S]methionine label) MYKERSGGGGGGSSRSEILGGAIDRKRINDALNKKLEKSSTSTTTSRVFSSKDKDPFSFTSTKTQLPDVESETDSEGSDVSGSEGDDTSWISWFCNLRGNDFFCEVDEDYIQDDFNLCGLSGQVPYYDYALDLILDVDASNSEMFTDEQHEMVESAAEMLYGLIHVRYILTTKGMAAMTEKYKNCDFGRCPRVFCCGQSCLPVGQSDIPRSSTVKIYCPKCEDISYPRSKFQGNIDGAYFGTTFPHLFLMTYGNLKPQKPTQSYVPKIFGFKVHKP	binds	–	binding [3]: binds; binding [4]: binds
CKA2 (α-subunit of Arabidopsis protein kinase CK2) (enzyme, Arabidopsis thaliana, UniProt Q08466-2 1-333, looked up) MSKARVYTDVNVIRPKDYWDYESLNVQWGEQDDYEVVRKVGRGKYSEVFEGINMNNNEKCIIKILKPVKKKKIRREIKILQNLCGGPNIVKLLDVVRDQHSKTPSLIFEYVNSTDFKVLYPTLTDYDIRYYIYELLKALDFCHSQGIMHRDVKPHNVMIDHELRKLRLIDWGLAEFYHPGKEYNVRVASRYFKGPELLVDLQDYDYSLDMWSLGCMFAGMIFRKEPFFYGHDNQDQLVKIAKVLGTDELNAYLNKYQLELDTQLEALVGRHSRKPWSKFINADNRHLVSPEAIDYLDKLLRYDHQDRLTAKEAMAHPYFAQVRAAESSRMRTQ	binds	–	–
GAL4-AD-CKB1 (protein, Arabidopsis thaliana, UniProt P40228 1-287, looked up, not shown: large carriers) MYRDRGTVNSRPEVVDRKRINDALERPSPSTSRQVNGKGKGTVTAATTTANLIGKQQSNNINHRDSRSASLSKNNTVSDDESDTDSEESDVSGSDGEDTSWISWFCNLRGNEFFCEVDDDYIQDDFNLCGLSSLVPYYEYALDLILDVESSQGEMFTEEQNELIESAAEMLYGLIHARYILTSKGLAAMLDKYKNYDFGRCPRVYCCGQPCLPVGQSDLPRSSTVKIYCPKCEDIYYPRSKYQGNIDGAYFGTTFPHLFLMTYGHLKPAKATQNYVQRVFGFKLHKP	–	binds	–
GAL4-AD-CKB2 (protein, Arabidopsis thaliana, UniProt P40229 1-282, looked up, not shown: large carriers) MYRERGMVGSKSEVVDRKRINEIHDNRPSHSMSQPVNGKGKVTSTSVLMGKQQLHDKESSRSGSISKTNISDAVDISDTDSEESEVSGSDGEDTSWISWFCNLRGNEFFCEVDDDYIQDDFNLCGLSHQVPYYDYALDLILDVESSHGEMFTEEQNELIESAAEMLYGMIHARFILTSKGLASMLDKYKNYDFGRCPRVYCCGQPCLPVGQSDIPRASTVKIYCPKCEDVYYPRSKYQGNIDGAYFGTTFPHLFLMTYGHLKPQKASQSYTQRVFGFKLHKP	–	binds	–
GAL4-AD-CKB3 (full-length CKB3 fused to the GAL4 transactivation domain) (protein, not shown: large carriers) MYKERSGGGGGGSSRSEILGGAIDRKRINDALNKKLEKSSTSTTTSRVFSSKDKDPFSFTSTKTQLPDVESETDSEGSDVSGSEGDDTSWISWFCNLRGNDFFCEVDEDYIQDDFNLCGLSGQVPYYDYALDLILDVDASNSEMFTDEQHEMVESAAEMLYGLIHVRYILTTKGMAAMTEKYKNCDFGRCPRVFCCGQSCLPVGQSDIPRSSTVKIYCPKCEDISYPRSKFQGNIDGAYFGTTFPHLFLMTYGNLKPQKPTQSYVPKIFGFKVHKP	–	binds	–
